Assay [1] addresses T1, Siglec-15-R143A (human) (UniProt Q6ZMC9).
T1 sequence: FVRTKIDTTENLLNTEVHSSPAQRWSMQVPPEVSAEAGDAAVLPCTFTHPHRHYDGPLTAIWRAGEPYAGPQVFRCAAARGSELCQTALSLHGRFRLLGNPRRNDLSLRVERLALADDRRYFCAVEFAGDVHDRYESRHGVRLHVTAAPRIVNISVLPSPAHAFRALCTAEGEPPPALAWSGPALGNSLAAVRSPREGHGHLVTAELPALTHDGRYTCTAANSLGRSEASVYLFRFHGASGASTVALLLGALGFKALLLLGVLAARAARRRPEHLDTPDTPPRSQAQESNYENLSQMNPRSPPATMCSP
As to the kind of experiment: co-IP; immunoprecipitation of flag in lysates from Siglec-15-flag (or R143A, N172Q) Daoy cells, immunoblot.

Sequences of proteins named here, by UniProt entry; tags and fusion partners are left off. Residues count along the entry.
UniProt P11717, residues 41-2491: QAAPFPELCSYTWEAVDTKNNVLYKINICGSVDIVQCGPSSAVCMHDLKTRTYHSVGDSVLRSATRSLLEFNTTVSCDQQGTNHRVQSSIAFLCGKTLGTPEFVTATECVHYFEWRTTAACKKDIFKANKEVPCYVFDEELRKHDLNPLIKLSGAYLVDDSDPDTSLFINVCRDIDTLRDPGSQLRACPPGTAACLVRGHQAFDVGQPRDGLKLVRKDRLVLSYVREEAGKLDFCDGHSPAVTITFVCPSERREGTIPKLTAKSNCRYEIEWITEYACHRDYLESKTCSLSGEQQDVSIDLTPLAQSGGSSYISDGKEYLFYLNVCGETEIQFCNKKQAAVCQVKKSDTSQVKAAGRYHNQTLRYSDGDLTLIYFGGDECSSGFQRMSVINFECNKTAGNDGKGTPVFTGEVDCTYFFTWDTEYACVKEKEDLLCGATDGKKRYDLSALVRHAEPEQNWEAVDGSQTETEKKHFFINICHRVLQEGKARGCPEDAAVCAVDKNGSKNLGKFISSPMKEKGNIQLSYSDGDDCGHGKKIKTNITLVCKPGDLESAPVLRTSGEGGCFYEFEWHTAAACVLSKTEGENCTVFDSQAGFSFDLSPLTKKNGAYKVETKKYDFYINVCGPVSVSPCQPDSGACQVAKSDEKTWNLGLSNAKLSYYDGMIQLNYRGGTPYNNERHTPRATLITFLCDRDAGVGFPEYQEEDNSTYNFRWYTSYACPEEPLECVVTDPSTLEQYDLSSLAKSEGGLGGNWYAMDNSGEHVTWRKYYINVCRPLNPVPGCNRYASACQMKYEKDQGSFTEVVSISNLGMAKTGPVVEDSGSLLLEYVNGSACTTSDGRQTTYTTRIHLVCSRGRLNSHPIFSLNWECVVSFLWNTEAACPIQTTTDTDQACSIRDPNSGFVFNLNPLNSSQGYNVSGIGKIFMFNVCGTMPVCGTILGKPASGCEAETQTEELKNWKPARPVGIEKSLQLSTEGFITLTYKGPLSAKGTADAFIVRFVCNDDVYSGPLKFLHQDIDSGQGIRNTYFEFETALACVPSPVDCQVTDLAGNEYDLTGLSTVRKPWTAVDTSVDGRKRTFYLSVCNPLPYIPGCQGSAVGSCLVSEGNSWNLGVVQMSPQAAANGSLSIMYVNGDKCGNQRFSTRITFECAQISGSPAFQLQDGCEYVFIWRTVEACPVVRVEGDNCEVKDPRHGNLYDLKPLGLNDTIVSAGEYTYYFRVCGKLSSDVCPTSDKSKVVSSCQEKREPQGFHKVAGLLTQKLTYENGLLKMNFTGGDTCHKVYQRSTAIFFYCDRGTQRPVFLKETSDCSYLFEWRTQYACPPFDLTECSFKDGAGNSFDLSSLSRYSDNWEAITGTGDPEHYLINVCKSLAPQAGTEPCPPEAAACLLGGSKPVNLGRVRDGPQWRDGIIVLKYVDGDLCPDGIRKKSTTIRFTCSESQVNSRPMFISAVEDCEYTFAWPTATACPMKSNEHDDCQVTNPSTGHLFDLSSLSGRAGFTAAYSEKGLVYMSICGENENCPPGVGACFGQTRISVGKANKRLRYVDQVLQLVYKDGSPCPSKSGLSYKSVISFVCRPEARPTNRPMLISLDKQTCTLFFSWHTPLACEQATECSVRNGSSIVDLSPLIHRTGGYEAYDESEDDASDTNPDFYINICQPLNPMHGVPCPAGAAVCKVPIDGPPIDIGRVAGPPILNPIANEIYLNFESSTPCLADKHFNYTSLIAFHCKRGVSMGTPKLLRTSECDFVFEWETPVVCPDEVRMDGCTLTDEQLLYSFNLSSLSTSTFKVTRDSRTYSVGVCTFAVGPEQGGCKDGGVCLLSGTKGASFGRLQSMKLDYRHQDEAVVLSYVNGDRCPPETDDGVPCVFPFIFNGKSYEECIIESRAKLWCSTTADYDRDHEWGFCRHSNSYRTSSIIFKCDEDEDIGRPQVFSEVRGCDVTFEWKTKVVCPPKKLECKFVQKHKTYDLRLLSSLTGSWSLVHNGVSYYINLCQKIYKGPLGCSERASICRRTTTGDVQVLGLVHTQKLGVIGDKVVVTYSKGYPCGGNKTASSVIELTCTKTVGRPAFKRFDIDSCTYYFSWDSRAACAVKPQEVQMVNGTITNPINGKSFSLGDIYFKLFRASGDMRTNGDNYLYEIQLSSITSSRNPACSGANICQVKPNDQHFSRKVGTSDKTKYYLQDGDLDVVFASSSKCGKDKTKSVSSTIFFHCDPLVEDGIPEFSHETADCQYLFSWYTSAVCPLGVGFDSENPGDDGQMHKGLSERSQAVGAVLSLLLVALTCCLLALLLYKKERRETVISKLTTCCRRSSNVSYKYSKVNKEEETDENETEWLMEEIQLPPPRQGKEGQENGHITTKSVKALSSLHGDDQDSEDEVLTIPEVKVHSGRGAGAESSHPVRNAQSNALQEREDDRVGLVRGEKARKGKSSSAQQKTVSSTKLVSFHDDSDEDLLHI
UniProt Q9GZU1: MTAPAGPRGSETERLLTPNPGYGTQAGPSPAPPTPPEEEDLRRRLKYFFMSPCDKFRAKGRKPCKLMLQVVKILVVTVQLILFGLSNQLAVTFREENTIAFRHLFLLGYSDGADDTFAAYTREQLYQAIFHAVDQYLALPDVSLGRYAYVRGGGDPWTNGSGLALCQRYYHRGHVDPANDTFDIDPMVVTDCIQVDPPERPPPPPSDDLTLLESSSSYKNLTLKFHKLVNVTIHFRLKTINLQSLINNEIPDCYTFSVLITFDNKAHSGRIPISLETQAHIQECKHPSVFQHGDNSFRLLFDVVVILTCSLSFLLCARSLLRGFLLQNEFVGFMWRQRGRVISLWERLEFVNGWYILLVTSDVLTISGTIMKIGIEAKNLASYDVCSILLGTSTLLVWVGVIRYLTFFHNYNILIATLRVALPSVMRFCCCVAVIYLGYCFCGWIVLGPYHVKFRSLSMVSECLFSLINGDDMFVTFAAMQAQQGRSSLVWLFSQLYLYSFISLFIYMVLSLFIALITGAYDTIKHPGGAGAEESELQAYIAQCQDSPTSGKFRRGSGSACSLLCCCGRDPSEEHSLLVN

The target of assay [2] is T2, Siglec-15-flag (sialic acid-binding immunoglobulin-like receptor 15, full length) (human) (UniProt Q6ZMC9).
T2 sequence: T1 sequence with A124R
The description is as above.

The target of assay [3] is T3, Siglec-15-ED-flag (human) (UniProt Q6ZMC9).
T3 sequence: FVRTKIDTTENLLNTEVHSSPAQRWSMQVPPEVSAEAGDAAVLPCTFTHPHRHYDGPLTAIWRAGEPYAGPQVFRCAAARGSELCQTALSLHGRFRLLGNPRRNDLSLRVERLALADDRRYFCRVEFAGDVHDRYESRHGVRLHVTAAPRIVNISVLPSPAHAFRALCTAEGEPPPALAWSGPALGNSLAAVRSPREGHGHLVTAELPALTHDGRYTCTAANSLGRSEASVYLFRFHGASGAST
Kind of assay: co-IP; truncated forms of Siglec-15 and TRPML1; cells not given.

For assay [4], the target named is T2, Siglec-15-flag (sialic acid-binding immunoglobulin-like receptor 15, full length) (human). The description is as above.

Changes are numbered by the printed parent chain. Results are given in words; binding and its absence hold for the method and conditions named. Binding seen in cells or lysates may run through a third protein. Some results given as binding are weak or reduced against the parent protein; the word gives no strength. For some assays here: Tags and fused reporters may be left off the sequences shown.

For “cation-independent mannose 6-phosphate receptor (CI-MPR) (from UniProt P11717 41-2491)”, the binding entry in assay [1] and in assay [2] was “binds” each time.

“mucolipin TRP cation channel 1 (TRPML1) (from UniProt Q9GZU1 1-580)”: the binding entry in assay [3], in assay [4] and in assay [2] was “binds” in each case.

These data come from PMC13161473 (2025).
